For 34 molecules, AC50 and cell number change results are on record in PubChem BioAssay AID2685 (National Center for Advancing Translational Sciences (NCATS), 2010).

The other results are listed elsewhere or left out. These are further read-outs of the screen, such as a control signal, another cell line or another target. No call is given for them. Compounds called inactive in the main read-out are mostly missing here. The note in brackets gives the kind of curve behind each potency; many fits are weak.

The assay in a line: qHTS Assay for Lipid Storage Modulators in Drosophila S3 Cells.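 For cell number change: cells counted by Cell Tracker Red CMTPX staining in the red channel.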 The conditions noted are these: BODIPY lipid droplet fluorescence, 18-24 h; for cell number change: measured here: cell count max response, cells fed with added oleic acid. The method, boiled down:
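Drosophila S3 cells got compounds at several concentrations plus oleic acid (400 uM solution). Laser-scanning cytometry with 488 nm excitation read lipid droplets at 500-530 nm and cells at 575-640 nm. Percent activity was relative to 20 uM Triacsin C.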

Setting [1] is: measured here: lipid fluorescence (Fed channel) AC50, cells fed with added oleic acid.
Setting [2] is: measured here: cell number channel AC50, cells fed with added oleic acid.

For the molecule `Cc1c(OC(C)C(=O)NCc2ccccn2)ccc2c3c(c(=O)oc12)CCC3` (stereo not drawn), the AC50 under setting [1] is 9.2 µM [falling, partial curve].
Take `Cc1ccc2c(C)nc(N/C(N)=N/S(=O)(=O)c3ccc([N+](=O)[O-])cc3)nc2c1`: the cell number change is -8.26%. In addition, the concentration at half-maximal activity (AC50) under setting [2] was 2.31 µM [falling, single point]. The AC50 under setting [1] is 0.206 µM [falling, full curve, poor fit].
For the molecule `CCCn1c(C2CCCN2c2nc(-c3cccc(Br)c3)cs2)nc2ccccc21` (stereo not drawn), the cell number change was determined as 19.1%. Moreover, the AC50 under setting [1] was 29.1 µM [rising, single point].
As for `CCOC(=O)N1CCN(C(=O)c2ccccc2NC(=O)COc2ccccc2C)CC1`, the cell number change is -20.8%. Moreover, under setting [1], the AC50 was 6.51 µM [rising, single point].
With `O=C(Cn1cccc1)Nc1ccc(OC(F)(F)F)cc1`, the cell number change was -31.4%. Further, the half-maximal activity concentration (AC50) under setting [2] was 5.8 µM [falling, full curve, poor fit].
As for `CCN(CC(=O)NC(C)C)Cc1nc2c(Br)cc(Br)cc2c(=O)[nH]1`, the cell number change was 25.4%. Also, the AC50 under setting [2] is 0.411 µM [rising, full curve, poor fit]. For the same molecule, the AC50 under setting [1] was 0.092 µM [rising, partial curve, poor fit].
With `O=S(=O)(NCC(c1ccc2c(c1)OCO2)N1CCOCC1)c1ccc(F)cc1` (stereo not drawn), under setting [1], the concentration at half-maximal activity (AC50) is 14.6 µM [falling, single point].
For `OC(c1cc(C(F)(F)F)nc2c(C(F)(F)F)cccc12)C1CCCCN1` (stereo not drawn), the cell number change is -70.9%. In addition, under setting [2], the AC50 was 16.4 µM [falling, partial curve]. Besides, the AC50 under setting [1] was 29.1 µM [falling, single point].
`Cc1nc2sccn2c1-c1nc(-c2cc3ccccc3o2)cs1`: the cell number change turned out to be 45.8%. The AC50 under setting [2] is 5.17 µM [rising, partial curve]. The AC50 under setting [1] was 16.4 µM [rising, partial curve].
In the case of `O=C(O)CC12CC3CC(C1)CC(n1ncc(NCc4ccccc4)c(Cl)c1=O)(C3)C2`, the cell number change was 9.39%.
In the case of `CCN1CCN(C(=O)c2ccc3nc(-c4ccccc4)c(-c4ccccc4)nc3c2)CC1`, the cell number change was found to be 14.6%. Besides, the half-maximal activity concentration (AC50) under setting [1] is 6.51 µM [rising, partial curve, poor fit].
In the case of `Cc1cc(NC(=O)CCCN2C(=O)/C(=C/c3ccccc3Cl)SC2=S)no1`, the cell number change is -10.3%. For the same molecule, the AC50 under setting [1] was 1.46 µM [falling, partial curve, poor fit].
As for `Cc1ccc(C(=O)ONc2ccc(N=O)cc2)cc1`, the cell number change was -68.9%. Moreover, the AC50 under setting [2] was 20.6 µM [falling, single point]. Besides, the half-maximal activity concentration (AC50) under setting [1] was 0.00461 µM [falling, full curve, poor fit].
Take `CCN(C(=O)/C=C/c1ccc2c(c1)OCO2)c1ccccc1`: the cell number change was -33.3%. The AC50 under setting [2] is 29.1 µM [falling, single point]. In addition, under setting [1], the AC50 was 0.0326 µM [rising, full curve, poor fit].
Take `CCCNC(=O)C1(CC2CC(c3ccccc3)=NO2)CCN(C(=O)c2ccccc2)CC1` (stereo not drawn): the cell number change was -11.2%. Further, the AC50 under setting [2] was 6.51 µM [falling, single point]. Further, under setting [1], the AC50 is 32.6 µM [falling, single point].
As for `N#Cc1ccc(CSc2nnc(-c3ccncc3)n2CCc2ccccc2)cc1`, the cell number change is -7.83%.
Regarding `Cc1cc(C)c2c(=O)[nH]c(SCC(=O)c3ccc(F)c(C)c3)nc2n1`, the cell number change was -21.1%. In addition, the AC50 under setting [1] was 0.82 µM [falling, full curve].
On to `COc1cc2c(cc1OC)CN(C(=O)Cc1c(F)cccc1Cl)CC2`, for which the half-maximal activity concentration (AC50) under setting [1] was 6.51 µM [falling, single point].
Turning to `NC(=O)[C@@H]1CCCN1C(=O)c1ccc2oc(CCc3ccccc3)nc2c1`, the cell number change is -3.76%. For the same molecule, the half-maximal activity concentration (AC50) under setting [1] is 6.51 µM [rising, single point].
Take `O=C(Cc1ccc(Cl)cc1)Nc1ccc(N2CCN(C(=O)c3ccco3)CC2)c(Cl)c1`: the AC50 under setting [1] was 13 µM [falling, partial curve, poor fit].
Regarding `COc1cccc(OCC(=O)NNC(=S)Nc2ccc(Cl)cc2Cl)c1`, the cell number change was determined as 22%. Further, the concentration at half-maximal activity (AC50) under setting [1] was 6.51 µM [rising, single point].
Consider `N#CC(C(=O)NC1CC1)c1nc2ccccc2nc1N1CCCC1` (stereo not drawn), for which the cell number change was 3.28%.
In the case of `Cc1ccc(-c2csc3nc4c5ccccc5c(NCCCN5CCOCC5)nn4c(=O)c23)cc1`, the cell number change was determined as 7.32%. Further, the AC50 under setting [2] is 2.06 µM [rising, partial curve, poor fit].
`COc1ccccc1C(CC(=O)N1CCCC1)c1ccc2c(c1)OCO2` (stereo not drawn): the cell number change is -36.3%. Further, the AC50 under setting [2] was 29.1 µM [falling, single point]. The AC50 under setting [1] is 23.1 µM [falling, single point].
In the case of `Cc1ccc(N2CCN(C(=O)c3cc(COc4c(C)cccc4C)on3)CC2)c(C)c1`, the cell number change was found to be 43.7%. The AC50 under setting [2] was 32.6 µM [rising, single point]. Also, under setting [1], the AC50 was 2.31 µM [falling, single point].
For `CC(=O)N1CCc2c(sc3c2c(=O)n(-c2ccccc2)c(=O)n3CC(=O)NCC2CCCO2)C1` (stereo not drawn), the cell number change worked out at 11.5%. Besides, under setting [1], the half-maximal activity concentration (AC50) was 3.26 µM [rising, full curve].
As for `O=C(NCc1ccc(Cl)c(Cl)c1)c1cccnc1`, the cell number change was determined as 2.87%. In addition, under setting [1], the AC50 is 7.31 µM [falling, single point].
Take `O=C(COc1ccccc1)Nc1nc2cc3c(cc2s1)OCCO3`: the cell number change was 28.5%. The AC50 under setting [1] was 1 µM [rising, full curve].
`CCOc1ccc(NC(=O)CN(c2ccc([N+](=O)[O-])cc2)S(=O)(=O)c2ccccc2)cc1`: the cell number change amounted to 33.4%. Also, the AC50 under setting [2] is 0.13 µM [rising, full curve, poor fit]. The concentration at half-maximal activity (AC50) under setting [1] was 29.1 µM [rising, single point].
`CC(O)c1ccc2c(c1)OCCOCCN(C)CCOCCO2` (stereo not drawn): the cell number change is -21.7%. In addition, the AC50 under setting [1] is 1.16 µM [falling, full curve, poor fit].
Consider `Cc1cc(=O)oc2cc(OCc3ccc(C(=O)N4CCN(c5ccc([N+](=O)[O-])cc5)CC4)cc3)ccc12`, for which the cell number change stood at 70.6%. For the same molecule, the AC50 under setting [2] is 18.4 µM [rising, single point]. In addition, the half-maximal activity concentration (AC50) under setting [1] is 16.4 µM [rising, single point].
Turning to `CC(C)CN(C(=O)CCNC(=O)c1ccccc1Cl)C1CCS(=O)(=O)C1` (stereo not drawn), the cell number change is -4.39%. In addition, the AC50 under setting [1] is 2.06 µM [rising, partial curve, poor fit].
Consider `Cc1ccccc1S(=O)(=O)N1[C@@H](c2cccc(Cl)c2)C(C(=O)O)=CC[C@H]1c1ccc(Cl)cc1`, for which the cell number change amounted to 0.726%. Further, the concentration at half-maximal activity (AC50) under setting [1] was 0.517 µM [rising, full curve, poor fit].
As for `Cc1ccc(-n2nc(C)c(NS(=O)(=O)c3ccccc3)c2C)cc1C`, the cell number change came to 47.6%. Moreover, the concentration at half-maximal activity (AC50) under setting [2] is 0.366 µM [rising, full curve]. The AC50 under setting [1] was 2.06 µM [rising, partial curve].
